Data as given in PubChem BioAssay AID1259425 (University of Nebraska Medical Center, 2018).

Test: 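Seek colon cancer weak points whose silencing resembles KSR1 loss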 (primary screen)
Cells: HCT116 human colon cancer cells
Reagents: siRNA pool against human genes, 50 nM siRNA
Measurement: 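mRNA of six signature genes measured together by branched-DNA assay after 50 nM siRNA pool, blank removed, divided by geometric mean of two housekeeping genes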
Reading the numbers: BNIP3L mRNA: higher = more BNIP3L transcript after knockdown; NDRG1 mRNA: higher = more NDRG1 transcript after knockdown; BNIP3 mRNA: higher = more BNIP3 transcript after knockdown; ALDOC mRNA: higher = more ALDOC transcript after knockdown; ACSL5 mRNA: higher = more ACSL5 transcript after knockdown
The whole screen tested about 14,000 reagents; this is an unselected part. The record does not give: the time to read-out.

| gene | BNIP3L mRNA, set 1 | NDRG1 mRNA, set 1 | BNIP3 mRNA, set 1 | ALDOC mRNA, set 1 | ACSL5 mRNA, set 1 |
| --- | --- | --- | --- | --- | --- |
| TAF2 (GeneID 6873) | 0.0394 | 0.0778 | 0.294 | 0.0146 | 0.107 |
| TGIF1 (GeneID 7050) | 0.144 | 0.213 | 0.335 | 0.0244 | 0.17 |
| MAP2K1 (GeneID 5604) | 0.227 | 0.127 | 0.39 | 0.0045 | 0.181 |
| VPS13A (GeneID 23230) | 0.089 | 0.137 | 0.147 | 0.0234 | 0.108 |
| ZFYVE28 (GeneID 57732) | 0.0631 | 0.126 | 0.251 | 0.0212 | 0.312 |
| DNMT3L (GeneID 29947) | 0.0922 | 0.139 | 0.3 | 0.0205 | 0.0548 |
| GHRL (GeneID 51738) | 0.261 | 0.621 | 0.236 | 0.0275 | 0.181 |
| SSX1 (GeneID 6756) | 0.109 | 0.296 | 0.346 | 0.0283 | 0.365 |
| NR6A1 (GeneID 2649) | 0.104 | 0.169 | 0.252 | 0.00465 | 0.0811 |
| GPC3 (GeneID 2719) | 0.143 | 0.434 | 0.585 | 0.0585 | 0.249 |
| LRBA (GeneID 987) | 0.121 | 0.116 | 0.315 | 0.0247 | 0.107 |
| GPRC6A (GeneID 222545) | 0.0848 | 0.416 | 0.214 | 0.014 | 0.178 |
| LINC00474 (GeneID 58483) | 0.282 | 0.566 | 0.555 | 0.0529 | 0.377 |
| CHML (GeneID 1122) | 0.125 | 0.155 | 0.269 | 0.0298 | 0.129 |
| STK4 (GeneID 6789) | 0.138 | 0.222 | 0.479 | 0.00457 | 0.176 |
| MGP (GeneID 4256) | 0.074 | 0.258 | 0.582 | 0.0505 | 0.213 |
| GNB4 (GeneID 59345) | 0.103 | 0.3 | 0.332 | 0.0397 | 0.27 |
| SIGLEC12 (GeneID 89858) | 0.113 | 0.111 | 0.32 | 0.0274 | 0.272 |
| NIPSNAP1 (GeneID 8508) | 0.0831 | 0.294 | 0.292 | 0.0118 | 0.174 |
| HABP4 (GeneID 22927) | 0.0821 | 0.277 | 0.355 | 0.0127 | 0.229 |
| GPR19 (GeneID 2842) | 0.208 | 0.563 | 0.556 | 0.0571 | 0.413 |
| RFK (GeneID 55312) | 0.129 | 0.126 | 0.287 | 0.00603 | 0.252 |
| NAA11 (GeneID 84779) | 0.134 | 0.131 | 0.2 | 0.0551 | 0.0947 |
| RASA4 (GeneID 10156) | 0.138 | 0.181 | 0.154 | 0.0267 | 0.262 |
| LYSET (GeneID 26175) | 0.184 | 0.392 | 0.538 | 0.0291 | 0.0886 |
| DZIP1 (GeneID 22873) | 0.0835 | 0.189 | 0.227 | 0.0185 | 0.156 |
| PGBD5 (GeneID 79605) | 0.165 | 0.198 | 0.264 | 0.0437 | 0.17 |
| TRMT112 (GeneID 51504) | 0.0756 | 0.253 | 0.267 | 0.0288 | 0.246 |
| EN1 (GeneID 2019) | 0.0875 | 0.374 | 0.249 | 0.0148 | 0.145 |
| PKLR (GeneID 5313) | 0.123 | 0.503 | 0.349 | 0.0214 | 0.296 |
| CELF4 (GeneID 56853) | 0.24 | 0.364 | 0.408 | 0.113 | 0.329 |
| TXNDC16 (GeneID 57544) | 0.0977 | 0.108 | 0.202 | 0.0195 | 0.336 |
| NDUFB1 (GeneID 4707) | 0.112 | 0.502 | 0.311 | 0.0207 | 0.165 |
| CYP1B1 (GeneID 1545) | 0.0688 | 0.0755 | 0.305 | 0.0226 | 0.168 |
| IL5 (GeneID 3567) | 0.0833 | 0.125 | 0.243 | 0.0207 | 0.101 |
| PCDH20 (GeneID 64881) | 0.166 | 0.218 | 0.401 | 0.0408 | 0.209 |
| RBM48 (GeneID 84060) | 0.212 | 0.195 | 0.245 | 0.0278 | 0.264 |
| PARP1 (GeneID 142) | 0.0662 | 0.205 | 0.315 | 0.0314 | 0.123 |
| VPS29 (GeneID 51699) | 1.57 | 3.98 | 2.78 | 0.832 | 0.215 |
| STK32B (GeneID 55351) | 0.098 | 0.132 | 0.317 | 0.00692 | 0.327 |
| RTTN (GeneID 25914) | 0.118 | 0.118 | 0.519 | 0.0441 | 0.144 |
| ASPA (GeneID 443) | 0.131 | 0.115 | 0.295 | 0.0111 | 0.186 |
| CNOT7 (GeneID 29883) | 0.0705 | 0.174 | 0.205 | 0.0274 | 0.0715 |
| FRMD4A (GeneID 55691) | 0.134 | 0.46 | 0.373 | 0.0224 | 0.104 |
| SCARB2 (GeneID 950) | 0.086 | 0.933 | 0.234 | 0.0412 | 0.2 |
| TAS1R1 (GeneID 80835) | 0.232 | 0.517 | 0.448 | 0.103 | 0.469 |
| TMEM98 (GeneID 26022) | 0.137 | 0.0696 | 0.274 | 0.0397 | 0.212 |
| FAM168A (GeneID 23201) | 0.119 | 0.632 | 0.349 | 0.024 | 0.119 |
| UBE2Q1 (GeneID 55585) | 0.102 | 0.195 | 0.235 | 0.0373 | 0.112 |
| GAR1 (GeneID 54433) | 0.138 | 0.151 | 0.291 | 0.0172 | 0.148 |
| ARMCX2 (GeneID 9823) | 0.163 | 0.138 | 0.306 | 0.032 | 0.2 |
| SBF2 (GeneID 81846) | 0.117 | 0.143 | 0.285 | 0.0222 | 0.242 |
| NCF2 (GeneID 4688) | 0.146 | 0.14 | 0.255 | 0.0418 | 0.275 |
| PLEKHG2 (GeneID 64857) | 0.122 | 0.133 | 0.363 | 0.0209 | 0.142 |
| SS18 (GeneID 6760) | 0.102 | 0.0915 | 0.466 | 0.0113 | 0.219 |
| FASN (GeneID 2194) | 0.111 | 0.432 | 0.199 | 0.0673 | 0.222 |
| NAPB (GeneID 63908) | 0.185 | 0.338 | 0.327 | 0.0496 | 0.201 |
| POLR1C (GeneID 9533) | 0.149 | 0.842 | 0.327 | 0.0302 | 0.281 |
| IL17RB (GeneID 55540) | 0.0797 | 0.0702 | 0.237 | 0.0136 | 0.123 |
| DANCR (GeneID 57291) | 0.157 | 0.999 | 0.415 | 0.0539 | 0.465 |
| ODF2 (GeneID 4957) | 0.145 | 0.344 | 0.203 | 0.046 | 0.0933 |
| NGEF (GeneID 25791) | 0.123 | 0.39 | 0.394 | 0.0288 | 0.193 |
| SLC6A5 (GeneID 9152) | 0.122 | 0.198 | 0.263 | 0.0366 | 0.303 |

5 of these entries, set out differently.
RASA4 (GeneID 10156) — BNIP3L mRNA, set 1 = 0.138; NDRG1 mRNA, set 1 = 0.181; BNIP3 mRNA, set 1 = 0.154; ALDOC mRNA, set 1 = 0.0267; ACSL5 mRNA, set 1 = 0.262
LYSET (GeneID 26175) — BNIP3L mRNA, set 1 = 0.184; NDRG1 mRNA, set 1 = 0.392; BNIP3 mRNA, set 1 = 0.538; ALDOC mRNA, set 1 = 0.0291; ACSL5 mRNA, set 1 = 0.0886
DZIP1 (GeneID 22873) — BNIP3L mRNA, set 1 = 0.0835; NDRG1 mRNA, set 1 = 0.189; BNIP3 mRNA, set 1 = 0.227; ALDOC mRNA, set 1 = 0.0185; ACSL5 mRNA, set 1 = 0.156
PGBD5 (GeneID 79605) — BNIP3L mRNA, set 1 = 0.165; NDRG1 mRNA, set 1 = 0.198; BNIP3 mRNA, set 1 = 0.264; ALDOC mRNA, set 1 = 0.0437; ACSL5 mRNA, set 1 = 0.17
TRMT112 (GeneID 51504) — BNIP3L mRNA, set 1 = 0.0756; NDRG1 mRNA, set 1 = 0.253; BNIP3 mRNA, set 1 = 0.267; ALDOC mRNA, set 1 = 0.0288; ACSL5 mRNA, set 1 = 0.246
